In patent publication US20210317201A1:
Results are given in words; binding and its absence hold for the method and conditions named. Some entries that bind do so weakly or less than the wild type.

Sequences of proteins named here, by UniProt entry; tags and fusion partners are left off. A change or cut given only in a name is not applied to a line headed by its entry. Residues count along the entry.
UniProt Q5VWK5, residues 24-353: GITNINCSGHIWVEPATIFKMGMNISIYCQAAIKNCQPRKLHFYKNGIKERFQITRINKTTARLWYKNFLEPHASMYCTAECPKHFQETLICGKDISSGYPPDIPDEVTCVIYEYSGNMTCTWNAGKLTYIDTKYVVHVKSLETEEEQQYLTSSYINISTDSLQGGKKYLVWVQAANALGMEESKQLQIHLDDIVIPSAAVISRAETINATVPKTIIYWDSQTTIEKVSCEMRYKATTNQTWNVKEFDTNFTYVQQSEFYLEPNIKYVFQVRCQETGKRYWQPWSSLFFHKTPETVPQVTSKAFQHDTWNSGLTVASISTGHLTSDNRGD
UniProt P29460: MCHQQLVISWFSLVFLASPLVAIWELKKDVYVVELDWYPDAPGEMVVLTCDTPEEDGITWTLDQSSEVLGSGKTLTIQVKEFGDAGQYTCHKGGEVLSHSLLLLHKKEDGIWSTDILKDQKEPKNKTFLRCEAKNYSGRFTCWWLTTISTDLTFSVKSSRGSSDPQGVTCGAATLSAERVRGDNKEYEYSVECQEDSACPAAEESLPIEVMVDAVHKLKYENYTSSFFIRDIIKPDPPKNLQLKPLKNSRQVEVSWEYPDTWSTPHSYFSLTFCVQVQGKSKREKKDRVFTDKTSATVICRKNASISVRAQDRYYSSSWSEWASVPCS

Molecular target: Human IL-23R-Fc (human) (UniProt Q5VWK5)
Experiment: biosensor sensorgram (response in nm, Separate Fit, Model 1:1): human IL-23R-Fc captured on the biosensor surface, 10 nM human IL-23 injected

recombinant human IL-23 (from UniProt P29460 23-328) (ligand)
binding: binds
